Laboratory results: PubChem BioAssay AID1259308 (NCATS, 2017)
Aim: 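Knock-downs that increase output of a recombinant reporter protein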 (primary screen). System: human HEK293 embryonic kidney cells stably expressing firefly luciferase (HEK-CMV-Luc2-Hygro). Reagents: single siRNA against human genes, 0.8 pmol siRNA per well. Time to read-out: 72 h. Measured: 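Reporter luminescence and viable-cell signal on separate replicate plates, given as percent of non-targeting control and median/MAD z-scores, plus per-cell luciferase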. Scale: total luciferase, z-score and total luciferase, % of control: higher = more reporter protein produced. Active means: 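Active when the median/MAD z-score for overall luciferase is greater than 3; a gene was taken forward for validation with new siRNAs if at least two of its three siRNAs passed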. Meaning of the calls: active = raised luciferase; inactive = no rise.
This is an unselected part of about 59,000 reagents tested. About 1,510 of them (2.6%) count as active. 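Calls use total luciferase alone and ignore viability, so some active siRNAs may act by altering cell number.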 Reagents against one gene are numbered here. Further read-outs or replicates are left out here.

Which result is listed for KCNK12 #1?
total luciferase, z-score: -1.57; total luciferase, % of control: 50.6; activity call: inactive

What is on record for KCNK12 #2?
total luciferase, z-score: 0.431; total luciferase, % of control: 90.5; activity call: inactive

With KCNK12 #3, what was measured?
total luciferase, z-score: -1.8; total luciferase, % of control: 46; activity call: inactive

What did the screen give for CHRNB4 #1?
total luciferase, z-score: -1.05; total luciferase, % of control: 61.1; activity call: inactive

For CHRNB4 #2, how do the results read?
total luciferase, z-score: -0.813; total luciferase, % of control: 65.7; activity call: inactive

How did the screen score CHRNB4 #3?
total luciferase, z-score: -0.0179; total luciferase, % of control: 81.5; activity call: inactive

For BTBD16 #1, what does the deposit list?
total luciferase, z-score: -1.69; total luciferase, % of control: 48.4; activity call: inactive

What did the screen give for BTBD16 #2?
total luciferase, z-score: -0.463; total luciferase, % of control: 72.7; activity call: inactive

For BTBD16 #3, what does the deposit list?
total luciferase, z-score: 0.0463; total luciferase, % of control: 82.8; activity call: inactive

With SCAI #1, how do the results read?
total luciferase, z-score: -0.0317; total luciferase, % of control: 81.3; activity call: inactive

For SCAI #2, what was measured?
total luciferase, z-score: 0.45; total luciferase, % of control: 90.8; activity call: inactive

What is on record for SCAI #3?
total luciferase, z-score: -0.274; total luciferase, % of control: 76.4; activity call: inactive

What is on record for CLEC19A #1?
total luciferase, z-score: -1.15; total luciferase, % of control: 59; activity call: inactive

For CLEC19A #2, what does the deposit list?
total luciferase, z-score: 2.39; total luciferase, % of control: 129; activity call: inactive

With CLEC19A #3, how do the results read?
total luciferase, z-score: 1.65; total luciferase, % of control: 115; activity call: inactive

How did the screen score POMT1 #1?
total luciferase, z-score: 1.7; total luciferase, % of control: 116; activity call: inactive

For POMT1 #2, what does the deposit list?
total luciferase, z-score: -0.0649; total luciferase, % of control: 80.6; activity call: inactive

Which result is listed for POMT1 #3?
total luciferase, z-score: -0.858; total luciferase, % of control: 64.8; activity call: inactive

For MRRF #1, what does the deposit list?
total luciferase, z-score: -0.0723; total luciferase, % of control: 80.4; activity call: inactive

How did the screen score MRRF #2?
total luciferase, z-score: 2.97; total luciferase, % of control: 141; activity call: inactive

Which result is listed for MRRF #3?
total luciferase, z-score: -1.17; total luciferase, % of control: 58.6; activity call: inactive

Which result is listed for MYL12B #1?
total luciferase, z-score: -0.576; total luciferase, % of control: 70.4; activity call: inactive

With MYL12B #2, how do the results read?
total luciferase, z-score: -0.0939; total luciferase, % of control: 80; activity call: inactive

For MYL12B #3, what does the deposit list?
total luciferase, z-score: -0.731; total luciferase, % of control: 67.4; activity call: inactive

2 entries from above, arranged by “total luciferase, % of control”, lowest first.
MRRF #3: total luciferase, z-score = -1.17; total luciferase, % of control = 58.6; activity call = inactive
MYL12B #1: total luciferase, z-score = -0.576; total luciferase, % of control = 70.4; activity call = inactive

The results go on.
How did the screen score APOL2 #1?
total luciferase, z-score: 0.723; total luciferase, % of control: 96.3; activity call: inactive

What did the screen give for APOL2 #2?
total luciferase, z-score: 1.97; total luciferase, % of control: 121; activity call: inactive

How did the screen score APOL2 #3?
total luciferase, z-score: -0.0321; total luciferase, % of control: 81.2; activity call: inactive

With CDCA3 #1, what does the deposit list?
total luciferase, z-score: 2.49; total luciferase, % of control: 131; activity call: inactive

With CDCA3 #2, how do the results read?
total luciferase, z-score: 2.43; total luciferase, % of control: 130; activity call: inactive

How did the screen score CDCA3 #3?
total luciferase, z-score: 0.85; total luciferase, % of control: 98.8; activity call: inactive

With NAP1L2 #1, what was measured?
total luciferase, z-score: 0.398; total luciferase, % of control: 89.8; activity call: inactive

What did the screen give for NAP1L2 #2?
total luciferase, z-score: -0.684; total luciferase, % of control: 68.3; activity call: inactive

Which result is listed for NAP1L2 #3?
total luciferase, z-score: -0.0212; total luciferase, % of control: 81.5; activity call: inactive

With SPINK14 #1, what was measured?
total luciferase, z-score: -1.53; total luciferase, % of control: 51.5; activity call: inactive

With SPINK14 #2, how do the results read?
total luciferase, z-score: -0.271; total luciferase, % of control: 76.5; activity call: inactive

How did the screen score SPINK14 #3?
total luciferase, z-score: -0.811; total luciferase, % of control: 65.8; activity call: inactive

How did the screen score STX1A #1?
total luciferase, z-score: 2.56; total luciferase, % of control: 133; activity call: inactive

How did the screen score STX1A #2?
total luciferase, z-score: 1.84; total luciferase, % of control: 119; activity call: inactive

What did the screen give for STX1A #3?
total luciferase, z-score: -1.29; total luciferase, % of control: 56.2; activity call: inactive

What is on record for SERINC2 #1?
total luciferase, z-score: 1.95; total luciferase, % of control: 121; activity call: inactive

How did the screen score SERINC2 #2?
total luciferase, z-score: -1.22; total luciferase, % of control: 57.7; activity call: inactive

For SERINC2 #3, what was measured?
total luciferase, z-score: -1.04; total luciferase, % of control: 61.2; activity call: inactive
